# Test results: US20190192622A1, “Use of Antisecretory Factor (AF) in Glioblastoma Treatment” (LANTMÄNNEN AS-FAKTOR AB, priority 2012, published 2019)
# At least one peptide structure holds a part that was inferred or is arguable (an end, a ring closure or a residue). Where a SMILES comes first, the peptide text is derived from it.
# Key:
# [1] = system: GL261 glioma tumor in the right brain hemisphere; experiment: Intracranial / interstitial fluid pressure in mice with GL261 glioma after nasal peptide; assay type: in vivo, C57/BI/6 mice
# Source text: Adult C57/BI/6 mice were purchased from B & K, Sollentuna, Sweden. The body weight was 23 g and the animals had water and pelleted feed ad libitum. Permission to the experiments was granted by the Regional Animal Experiments Ethical Committee, and national and EU rules were followed.
# The GL261 mouse glioma cell line was of C57/BI/6 origin and cultured in the Rausing laboratory, BMC, Lund University, according to an established protocol (K. Enell Smith, S. Fritzell, W. Badn, S. Eberstål, S. Janelidze, E. Visse, A. Darabi and P. Siesjö (2008). Cure of established GL261 mouse gliomas after combined immunotherapy with GM-CSF and IFNγ is mediated by both CD8^+ and CD4^+ T-cells. Int. J. Cancer 124, 630-637).
# C57/BI/6 mice had each 5.000 GL261 glioma cells in 5 μL tissue culture medium stereo tactically deposited in deep brain structure in the right brain hemisphere. An expanding tumor was formed and had 22 days later a diameter of 3-5 mm.
# The six AA peptide AF-6 (SEQ ID NO:2) (manufactured by solid phase synthesis by K J Ross-Petersen ApS, Copenhagen, with >95% purity and TFA as counter ion) was selected to be investigated for its ability to reduce the increased intracranial pressure (ICP) inevitably evolving at this stage of tumor development.
# A mouse with a GL261 tumor in the right brain hemisphere was anaesthetized with isofluran and positioned in a stereotactic holder. The skin on the calvarium was incised, and soft tissue removed. Two holes, each with a diameter of 1 mm, were drilled in the right and the left parietal bones. A miniature fiber optic pressure transducer was inserted through each hole in the skull bone in the brain tissue, connected to a Samba 3200 pressure measuring equipment (Samba Samba Sensors AB, V. Frölunda, Sweden) and a computer. The sensors were calibrated prior to and after each measuring session.
# The anaesthetized mouse had 5 μL of a 6 amino acid peptide, AF-6, dissolved in distilled water, instilled in each nostril while the animal was having its back downward. The dose was 5 mg per kg body weight. The continuous recording of the pressure in either hemisphere was thereafter started. The initial interstitial fluid pressure (IFP) in the right tumor hemisphere was 23 mm Hg and the ICP in the left hemisphere 19 mm Hg, which contrast to the ICP in a normal control mouse, about 6 mm Hg. Both the IFP and the ICP started to decrease after about 15 minutes. At 45 min after the nasal instillation of AF-6 the IFP in the right tumor hemisphere was 7 mm Hg while the IFP was 4-5 mm Hg in the left brain half.
# [2] = system: RG2, clone N32 glioblastoma tumor cell nuclei; experiment: Uptake of tracer doxorubicin into glioblastoma cell nuclei of rats (fluorescence microscopy); assay type: in vivo, Fisher 344 rats; settings: animals with experimentally induced glioblastoma
# Source text: The aim of this experiment was to investigate if treatment with AF-16 increased the penetration of a marker through the tumor cells membrane and subsequent entrance and distribution in their nuclei. Doxorubicin was selected as a tracer for the reason that it is an established cytotoxic drug with a molecular mass of 543.52 g/mol, i.e. being considered as a fairly low molecular mass substance. Further, doxorubicin has a red color and when exposed to light emits a red fluorescence. Doxorubicin is strongly intercalating with the DNA in cell nuclei. This means that if a red fluorescence is observed in a cell nucleus the marker has been reached its target, the tumor cells. It is known that glioblastoma cells, in humans as in animals, prevent the entrance of chemotherapeutic substances into the tumor cells, and consequently no beneficial effects are attained. The most important barrier to the drug is prevailing at the surface of the tumor cells.
# Adult male Fisher 344 rats were purchased from Charles River, Germany. The body weight at the time for the experiments was 230-250 g. […]
# AF-16, 1 mg per kg body weight, dissolved in water and administrated as a single dose in a volume of 10 μL, was instilled in the nostrils of anaesthetized Fisher rats. […] Cryostat microtome sections were prepared of the brains, and examined with the aid of fluorescence microscope. […]
smiles,measurement,setting,value
"C[C@@H](O)[C@H](NC(=O)[C@H](CCCCN)NC(=O)[C@H](CO)NC(=O)[C@H](Cc1c[nH]cn1)NC(=O)[C@@H](N)CS)C(=O)N[C@@H](CCCNC(=N)N)C(=O)O [AF-6, CHSKTR] (H-CHSKTR-OH)",effect on raised intracranial pressure (statement in words),[1]; mice with experimentally induced glioblastoma,lowered the raised intracranial pressure
same,start of decrease of IFP and ICP,[1]; nasal 5 mg per kg body weight,about 15 minutes
same,interstitial fluid pressure (IFP) in the right tumor hemisphere,"[1]; nasal 5 mg per kg body weight, 45 min after instillation, initial 23 mm Hg",7 mm Hg
same,pressure in the left brain half,"[1]; nasal 5 mg per kg body weight, 45 min after instillation, initial ICP 19 mm Hg",4-5 mm Hg
same,effect on uptake of doxorubicin by tumor cell nuclei (summary statement),[2],could as well be demonstrated to be achieved
